Measured values as given in publication PMC4955970, “Stable, synthetic analogs of diadenosine tetraphosphate inhibit rat and human P2X3 receptors and inflammatory pain” (Molecular Pain, 2016).

Test system: formalin-induced nociceptive behavior
Assay: Formalin test (spontaneous jerking of the injected hindpaw)
Type: in vivo, rat
Conditions: formalin test dose-response
Method: All animal experiments were carried out in accordance with the “Guide for the Care and Use of Laboratory Animals” as adopted by the Bogomoletz Institute of Physiology Clinic of Animal Care and Use. The formalin test experiments were performed on 21-day-old male Wistar rats, weighing 40 ± 5 g according to the method described previously.[49],[50] Briefly, animal was acclimated to an acrylic observation chamber for at least 1 h before the injection of formalin (50 µl of 0.5% solution in 0.9% saline) into the dorsal surface of the right hindpaw. Immediately after the injection, each animal was returned to the observation chamber and its behavioral characteristics were recorded for 45 min. We noticed consistently observed type of response: spontaneous jerking of the injected paw. The number of jerks was measured for each 1-min block, using self-developed computer software.
Figure 8. Effects of subcutaneous Ap4A analogs on pain responses induced by intraplantar (right hindpaw) formalin injection. Rats were subcutaneously injected with formalin solution alone (0.5%, 50 µl, control) or coinjected with the formalin solution and solutions with AppCH2ppA (1 µM–100 µM, 100 µl) or AppNHppA (0.1 µM–100 µM, 100 µl). Age-matched control animals were injected with saline. (a) Time course of the effects of subcutaneous AppCH2ppA (left) and AppNHppA (right) on the number of the spontaneous jerkings of the injected paw. (b) Bar graphs of the effects of AppCH2ppA (b, c) and AppNHppA (d, e) on the integral number of spontaneous jerkings. Measurements were made during the acute phase (0–6 min) and tonic phase (7–45 min) of the formalin response. (f) Dose-response curves for AppCH2ppA (left) and AppNHppA (right) during tonic and acute phases. For each concentration 6–7 rats were used.

Structure (SMILES) | kH, tonic phase | kH, acute phase
Nc1ncnc2c1ncn2[C@@H]1O[C@H](COP(=O)(O)OP(=O)(O)NP(=O)(O)OP(=O)(O)OC[C@H]2O[C@@H](n3cnc4c(N)ncnc43)[C@H](O)[C@@H]2O)[C@@H](O)[C@H]1O [AppNHppA, diadenosine 5′,5′′′-P^1,P^4-(β,γ-imido)tetraphosphate] | 0.82 ± 0.1 | –
Nc1ncnc2c1ncn2[C@@H]1O[C@H](COP(=O)(O)OP(=O)(O)CP(=O)(O)OP(=O)(O)OC[C@H]2O[C@@H](n3cnc4c(N)ncnc43)C(O)C2O)C(O)C1O (stereo partly drawn) [AppCH2ppA, diadenosine 5′,5′′′-P^1,P^4-(β,γ-methylene)tetraphosphate] | 1.15 ± 0.17 | 0.5 ± 0.14
